# Reference: the supplement of paper PMC8728848
# The list shows a part of the results.
# B1: RfpC (Mycobacterium tuberculosum), O07747 (protein)
# chain: MHHHHHHSSGRENLYFQGHMASKSAMAAGLVTASMSLSTAVAHAGPSPNWDAVAQCESGGNWAANTGNGKYGGLQFKPATWAAFGGVGNPAAASREQQIAVANRVLAEQGLDAWPTCGAASGLPIALWSKPAQGIKGS
# Key:
# Assay in all cases: glycan array binding signal (z-score within array); higher = stronger binding
# Conditions in all cases: glycan notation: IUPAC condensed, linker removed
# [1] = biological target: Fuc(a1-2)Gal
# Method in brief: (§1)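 The binding signal is a Z-score computed within each array. Data were drawn from 3228 arrays in the Consortium for Functional Glycomics database, restricted to those with a known protein sequence. Scores were averaged over arrays of the same protein sequence at different concentrations or buffers, and over linkers, and negative values can be taken as non-binding.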
# [2] = biological target: Fuc(a1-2)Gal(b1-3)GalNAc
# Method in brief: as §1
# [3] = biological target: Fuc(a1-2)Gal(b1-3)GalNAc(b1-3)Gal
# Method in brief: as §1
# [4] = biological target: Fuc(a1-2)Gal(b1-3)GalNAc(b1-3)Gal(a1-4)Gal(b1-4)Glc
# Method in brief: as §1
# [5] = biological target: Fuc(a1-2)Gal(b1-3)GalNAc(b1-4)[Neu5Ac(a2-3)]Gal(b1-4)Glc
# Method in brief: as §1
# [6] = biological target: Fuc(a1-2)Gal(b1-3)GlcNAc
# Method in brief: as §1
# [7] = biological target: Fuc(a1-2)Gal(b1-3)GlcNAc(b1-3)Gal(b1-4)Glc
# Method in brief: as §1
# [8] = biological target: Fuc(a1-2)Gal(b1-3)[Fuc(a1-4)]GlcNAc
# Method in brief: as §1
# [9] = biological target: Fuc(a1-2)Gal(b1-4)Glc
# Method in brief: as §1
# [10] = biological target: Fuc(a1-2)Gal(b1-4)Glc6S
# Method in brief: as §1
# [11] = biological target: Fuc(a1-2)Gal(b1-4)GlcNAc
# Method in brief: as §1
# [12] = biological target: Fuc(a1-2)Gal(b1-4)GlcNAc(b1-2)Man(a1-3)[Fuc(a1-2)Gal(b1-4)GlcNAc(b1-2)Man(a1-6)]Man(b1-4)GlcNAc(b1-4)GlcNAc
# Method in brief: as §1
# [13] = biological target: Fuc(a1-2)Gal(b1-4)GlcNAc(b1-2)Man(a1-6)[Gal(b1-4)GlcNAc(b1-2)Man(a1-3)]Man(b1-4)GlcNAc(b1-4)GlcNAc
# Method in brief: as §1
# [14] = biological target: Fuc(a1-2)Gal(b1-4)GlcNAc(b1-3)Gal(b1-4)GlcNAc
# Method in brief: as §1
# [15] = biological target: Fuc(a1-2)Gal(b1-4)GlcNAc(b1-3)Gal(b1-4)GlcNAc(b1-3)Gal(b1-4)GlcNAc
# Method in brief: as §1
# [16] = biological target: Fuc(a1-2)Gal(b1-4)GlcNAc6S
# Method in brief: as §1
# [17] = biological target: Fuc(a1-2)Gal(b1-4)[Fuc(a1-3)]GlcNAc
# Method in brief: as §1
# [18] = biological target: Fuc(a1-2)Gal(b1-4)[Fuc(a1-3)]GlcNAc(b1-3)Gal(b1-4)[Fuc(a1-3)]GlcNAc
# Method in brief: as §1
# [19] = biological target: Fuc(a1-2)Gal(b1-4)[Fuc(a1-3)]GlcNAc(b1-3)Gal(b1-4)[Fuc(a1-3)]GlcNAc(b1-3)Gal(b1-4)[Fuc(a1-3)]GlcNAc
# Method in brief: as §1
# [20] = biological target: Fuc(a1-2)Gal6S(b1-4)Glc
# Method in brief: as §1
# [21] = biological target: Fuc(a1-2)Gal6S(b1-4)Glc6S
# Method in brief: as §1
# [22] = biological target: Fuc(a1-2)Gal6S(b1-4)GlcNAc
# Method in brief: as §1
# [23] = biological target: Fuc(a1-2)[Gal(a1-3)]Gal
# Method in brief: as §1
# [24] = biological target: Fuc(a1-2)[Gal(a1-3)]Gal(b1-3)GlcNAc
# Method in brief: as §1
# [25] = biological target: Fuc(a1-2)[Gal(a1-3)]Gal(b1-4)Glc
# Method in brief: as §1
# [26] = biological target: Fuc(a1-2)[Gal(a1-3)]Gal(b1-4)GlcNAc
# Method in brief: as §1
# [27] = biological target: Fuc(a1-2)[Gal(a1-3)]Gal(b1-4)[Fuc(a1-3)]GlcNAc
# Method in brief: as §1
# [28] = biological target: Fuc(a1-2)[Gal(a1-4)]Gal(b1-4)GlcNAc
# Method in brief: as §1
# [29] = biological target: Fuc(a1-2)[GalNAc(a1-3)]Gal
# Method in brief: as §1
# [30] = biological target: Fuc(a1-2)[GalNAc(a1-3)]Gal(b1-3)GlcNAc
# Method in brief: as §1
# [31] = biological target: Fuc(a1-2)[GalNAc(a1-3)]Gal(b1-4)Glc
# Method in brief: as §1
# [32] = biological target: Fuc(a1-2)[GalNAc(a1-3)]Gal(b1-4)GlcNAc
# Method in brief: as §1
# [33] = biological target: Fuc(a1-2)[GalNAc(a1-3)]Gal(b1-4)[Fuc(a1-3)]GlcNAc
# Method in brief: as §1
# [34] = biological target: Fuc(a1-2)[GalNAc(a1-4)]Gal(b1-4)GlcNAc
# Method in brief: as §1
# [35] = biological target: Fuc(a1-2)[GalNAc(b1-3)]Gal
# Method in brief: as §1
# [36] = biological target: Fuc(a1-3)GlcNAc
# Method in brief: as §1
# [37] = biological target: Fuc(a1-3)[Gal(b1-4)]Glc6S
# Method in brief: as §1
# [38] = biological target: Fuc(a1-3)[Gal(b1-4)]GlcNAc
# Method in brief: as §1
# [39] = biological target: Fuc(a1-3)[Gal(b1-4)]GlcNAc(b1-3)Gal(b1-3)[Fuc(a1-4)]GlcNAc
# Method in brief: as §1
# [40] = biological target: Fuc(a1-3)[Gal(b1-4)]GlcNAc(b1-4)Gal(b1-4)[Fuc(a1-3)]GlcNAc
# Method in brief: as §1
# [41] = biological target: Fuc(a1-3)[Gal(b1-4)]GlcNAc(b1-4)Gal(b1-4)[Fuc(a1-3)]GlcNAc(b1-4)Gal(b1-4)[Fuc(a1-3)]GlcNAc
# Method in brief: as §1
# [42] = biological target: Fuc(a1-3)[Gal(b1-4)]GlcNAc6S
# Method in brief: as §1
# [43] = biological target: Fuc(a1-3)[Gal3S(b1-4)]Glc6S
# Method in brief: as §1
# [44] = biological target: Fuc(a1-3)[Gal3S(b1-4)]GlcNAc
# Method in brief: as §1
# [45] = biological target: Fuc(a1-3)[Gal3S(b1-4)]GlcNAc6S
# Method in brief: as §1
# [46] = biological target: Fuc(a1-3)[GalNAc(b1-4)]GlcNAc
# Method in brief: as §1
# [47] = biological target: Fuc(a1-4)GlcNAc
# Method in brief: as §1
# [48] = biological target: Fuc(b1-3)GlcNAc
# Method in brief: as §1
# [49] = biological target: Gal(a1-2)Gal
# Method in brief: as §1
# [50] = biological target: Gal(a1-3)Gal
# Method in brief: as §1
# [51] = biological target: Gal(a1-3)Gal(b1-3)GlcNAc
# Method in brief: as §1
# [52] = biological target: Gal(a1-3)Gal(b1-4)Glc
# Method in brief: as §1
# [53] = biological target: Gal(a1-3)Gal(b1-4)GlcNAc
# Method in brief: as §1
# [54] = biological target: Gal(a1-3)Gal(b1-4)[Fuc(a1-3)]GlcNAc
# Method in brief: as §1
# [55] = biological target: Gal(a1-3)GalNAc
# Method in brief: as §1
# [56] = biological target: Gal(a1-3)[Gal(a1-4)]Gal(b1-4)GlcNAc
# Method in brief: as §1
# [57] = biological target: Gal(a1-4)Gal(b1-4)Glc
# Method in brief: as §1
# [58] = biological target: Gal(a1-4)Gal(b1-4)GlcNAc
# Method in brief: as §1
# [59] = biological target: Gal(a1-4)GlcNAc
# Method in brief: as §1
# [60] = biological target: Gal(a1-6)Glc
# Method in brief: as §1
# [61] = biological target: Gal(b1-2)Gal
# Method in brief: as §1
# [62] = biological target: Gal(b1-3)Gal
# Method in brief: as §1
# [63] = biological target: Gal(b1-3)Gal(b1-4)GlcNAc
# Method in brief: as §1
# [64] = biological target: Gal(b1-3)GalNAc
# Method in brief: as §1
# [65] = biological target: Gal(b1-3)GalNAc(b1-3)Gal(a1-4)Gal(b1-4)Glc
# Method in brief: as §1
# [66] = biological target: Gal(b1-3)GalNAc(b1-4)Gal(b1-4)Glc
# Method in brief: as §1
# [67] = biological target: Gal(b1-3)GalNAc(b1-4)[Neu5Ac(a2-3)]Gal(b1-4)Glc
# Method in brief: as §1
# [68] = biological target: Gal(b1-3)GlcNAc
# Method in brief: as §1
# [69] = biological target: Gal(b1-3)GlcNAc(b1-3)Gal(b1-3)GlcNAc
# Method in brief: as §1
# [70] = biological target: Gal(b1-3)GlcNAc(b1-3)Gal(b1-4)Glc
# Method in brief: as §1
# [71] = biological target: Gal(b1-3)GlcNAc(b1-3)Gal(b1-4)GlcNAc
# Method in brief: as §1
# [72] = biological target: Gal(b1-3)[Fuc(a1-4)]GlcNAc
# Method in brief: as §1
# [73] = biological target: Gal(b1-3)[Fuc(a1-4)]GlcNAc(b1-3)Gal(b1-3)[Fuc(a1-4)]GlcNAc
# Method in brief: as §1
# [74] = biological target: Gal(b1-3)[Fuc(a1-4)]GlcNAc(b1-3)Gal(b1-4)GlcNAc
# Method in brief: as §1
# [75] = biological target: Gal(b1-3)[Fuc(a1-4)]GlcNAc(b1-3)Gal(b1-4)[Fuc(a1-3)]GlcNAc
# Method in brief: as §1
binder,measurement,setting,value
B1,glycan array binding signal (z-score),[1],-1.03
same,glycan array binding signal (z-score),[2],-0.613
same,glycan array binding signal (z-score),[3],1.51
same,glycan array binding signal (z-score),[4],-0.686
same,glycan array binding signal (z-score),[5],-0.182
same,glycan array binding signal (z-score),[6],0.092
same,glycan array binding signal (z-score),[7],0.546
same,glycan array binding signal (z-score),[8],0.273
same,glycan array binding signal (z-score),[9],0.855
same,glycan array binding signal (z-score),[10],2.16
same,glycan array binding signal (z-score),[11],0.119
same,glycan array binding signal (z-score),[12],-0.663
same,glycan array binding signal (z-score),[13],0.208
same,glycan array binding signal (z-score),[14],0.201
same,glycan array binding signal (z-score),[15],0.53
same,glycan array binding signal (z-score),[16],-0.27
same,glycan array binding signal (z-score),[17],0.115
same,glycan array binding signal (z-score),[18],-1.41
same,glycan array binding signal (z-score),[19],1.76
same,glycan array binding signal (z-score),[20],-0.23
same,glycan array binding signal (z-score),[21],-0.156
same,glycan array binding signal (z-score),[22],0.663
same,glycan array binding signal (z-score),[23],-0.091
same,glycan array binding signal (z-score),[24],-0.784
same,glycan array binding signal (z-score),[25],0.195
same,glycan array binding signal (z-score),[26],-0.616
same,glycan array binding signal (z-score),[27],-1
same,glycan array binding signal (z-score),[28],-0.099
same,glycan array binding signal (z-score),[29],-0.02
same,glycan array binding signal (z-score),[30],-0.273
same,glycan array binding signal (z-score),[31],0.542
same,glycan array binding signal (z-score),[32],-0.005
same,glycan array binding signal (z-score),[33],0.314
same,glycan array binding signal (z-score),[34],0.699
same,glycan array binding signal (z-score),[35],0.437
same,glycan array binding signal (z-score),[36],-0.148
same,glycan array binding signal (z-score),[37],0.296
same,glycan array binding signal (z-score),[38],-0.802
same,glycan array binding signal (z-score),[39],-0.561
same,glycan array binding signal (z-score),[40],-1.47
same,glycan array binding signal (z-score),[41],-0.13
same,glycan array binding signal (z-score),[42],-0.044
same,glycan array binding signal (z-score),[43],-1.53
same,glycan array binding signal (z-score),[44],0.264
same,glycan array binding signal (z-score),[45],1.7
same,glycan array binding signal (z-score),[46],0.149
same,glycan array binding signal (z-score),[47],-1.09
same,glycan array binding signal (z-score),[48],-0.51
same,glycan array binding signal (z-score),[49],0.019
same,glycan array binding signal (z-score),[50],-1.24
same,glycan array binding signal (z-score),[51],-1.2
same,glycan array binding signal (z-score),[52],0.44
same,glycan array binding signal (z-score),[53],-0.872
same,glycan array binding signal (z-score),[54],-0.821
same,glycan array binding signal (z-score),[55],-0.007
same,glycan array binding signal (z-score),[56],2.24
same,glycan array binding signal (z-score),[57],-0.838
same,glycan array binding signal (z-score),[58],0.65
same,glycan array binding signal (z-score),[59],0.343
same,glycan array binding signal (z-score),[60],-0.418
same,glycan array binding signal (z-score),[61],0.853
same,glycan array binding signal (z-score),[62],-0.47
same,glycan array binding signal (z-score),[63],-0.276
same,glycan array binding signal (z-score),[64],-0.749
same,glycan array binding signal (z-score),[65],2.48
same,glycan array binding signal (z-score),[66],-0.364
same,glycan array binding signal (z-score),[67],-0.818
same,glycan array binding signal (z-score),[68],-0.353
same,glycan array binding signal (z-score),[69],-1.04
same,glycan array binding signal (z-score),[70],-0.841
same,glycan array binding signal (z-score),[71],-0.74
same,glycan array binding signal (z-score),[72],-0.507
same,glycan array binding signal (z-score),[73],-0.622
same,glycan array binding signal (z-score),[74],-1.24
same,glycan array binding signal (z-score),[75],-0.435
